According to article PMC12040169 (PLOS Biology, 2025):
The other results are listed elsewhere or left out.

The compounds below were run on T1, CTL2-GFP (C. trachomatis L2/434/Bu, GFP-expressing). Conditions: bulk GFP, single well; 28.5 h, 10 µM; inhibitor.
T1 construct: L2/434/Bu, GFP-expressing
Design: species or system HeLa; Intracellular C. trachomatis growth in HeLa cells, bulk GFP fluorescence relative to DMSO

Row | SMILES | % of control remaining [%]
1 | Cc1nn(C)c(N2CCNCC2)c1NC(=O)COc1ccccc1 [CBK050249T] | 52.1366
2 | Cc1cc(CN2CCOCC2)oc1C(=O)O [CBK263239C] | 104.305
3 | O=C(O)C1CCCCC1C(=O)NCCCN1CCCC1=O (centres unmarked) [CBK286914] | 101.523
4 | Cc1ccccc1S(=O)(=O)Nc1cc(CN2C[C@H](C)NC[C@H]2C)c2occc2c1 [CBK107210T] | 112.997
5 | CC(=O)NCC1CC(c2ccc(OC(C)=O)c(Cl)n2)=NO1 (centres unmarked) [CBK010396] | 100
6 | COc1ccc(Sc2cccc(C(F)(F)F)n2)cc1OC [CBK093769] | 94.9932
7 | CCOC(=O)CN1CCC(Oc2nccnc2OCCN2CCOCC2)CC1 [CBK082929] | 115.827
8 | CCOC(=O)CNC(=S)N[C@H]1CC[C@@]2(c3cccnc3)CCN(Cc3ccccc3)[C@H]2C1 [CBK028453] | 92.97
9 | Cc1ccc(C(=O)Nc2ccc3[nH]ccc3c2)cc1Cl [CBK159677] | 114.608
10 | Nc1nc2n(n1)C1(CCCCC1)C1=C(CCCC1)N2 [CBK288219] | 136.556
11 | CN(C)c1nc(N(C)C)n(C(=O)c2cccs2)n1 [CBK019805] | 122.702
12 | NS(=O)(=O)c1ccc(C(=O)N2CCC3(CCN(C(=O)Cc4c[nH]c5ccccc45)C3)C2)cc1 (centres unmarked) [CBK131425] | 114.045
13 | Cc1cc(C(=O)N2CCC(Cn3cncn3)(C3CCCCC3)CC2)n[nH]1 [CBK136786] | 122.803
14 | c1ccc2sc([C@H]3CCNC3)nc2c1 [CBK289389] | 133.015
15 | COc1ccc(N2CCN(c3cc(-c4ccc(CCC(=O)O)cc4)ncn3)CC2)cc1OC [CBK091030] | 78.9561
16 | COc1cc(F)cc(OC2CCNCC2)c1NC(=O)/C=C/c1cccnc1 [CBK050344T] | 88.8167
17 | O=C(c1cccnc1)N1CCN(Cc2ccc([N+](=O)[O-])cc2)CC1 [CBK263026] | 92.8116
18 | O=C(Nc1ccc(-c2ccccc2)cc1)c1cccc(S(=O)(=O)NCC2CCCO2)c1 (centres unmarked) [CBK296994] | 123.968
19 | CCOC(=O)c1sc(NS(=O)(=O)c2ccc(-c3ccccc3)cc2)nc1C [CBK003784] | 89.3217
20 | O=[N+]([O-])c1cccc(-c2csc(N/N=C\c3cccc(O)c3)n2)c1 [CBK263418] | 124.721
21 | Cc1ccc(Nc2nc(N/N=C/c3cccc4ccccc34)nc(N3CCC(Cc4ccccc4)CC3)n2)cc1 [CBK262101] | 100
22 | Cn1cncc1CN1CCCC(c2cc3cccnc3[nH]2)C1 (centres unmarked) [CBK284948] | 125.466
23 | CSCCc1[nH]c(SCC(=O)Nc2cccc3ccccc23)nc1C [CBK266097] | 172.204
24 | CCCN1CC(NC(=O)c2cc(COc3cccc(F)c3)[nH]n2)CC1=O (centres unmarked) [CBK306912] | 136.358
25 | COc1ccc(S(=O)(=O)NCCCN2CCOCC2)c(C)c1C [CBK266519] | 155.301
26 | c1csc(-c2ccn3c(n2)nc2ccccc23)c1 [CBK287976] | 100
27 | Cc1cc(Cl)ccc1OCCCC(=O)Nc1sc2c(c1C(N)=O)CCCCCC2 [CBK265390] | 104.602

Part of the list above, reformatted:
Nc1nc2n(n1)C1(CCCCC1)C1=C(CCCC1)N2 [CBK288219]
  % of control remaining [%]: 136.556
CN(C)c1nc(N(C)C)n(C(=O)c2cccs2)n1 [CBK019805]
  % of control remaining [%]: 122.702

(further entries)

Row | SMILES | % of control remaining [%]
28 | O=S(=O)(c1ccc(C(F)(F)F)cc1)N1CCC2(CC1)OCCO2 [CBK044520] | 135.379
29 | Cc1cc(C)n(C2CCN(Cc3c(C)nc4ccccn34)CC2)n1 [CBK281614] | 116.78
30 | Cc1nc(CCCn2cnc3nccnc3c2=O)sc1C [CBK306962] | 166.041
31 | Nc1ccc2nc(CCCCCC(=O)O)sc2c1 [CBK016399] | 94.4706
32 | CCC(Sc1nc(C)cc(C)n1)C(=O)N1c2ccccc2Sc2ccccc21 (centres unmarked) [CBK263018] | 81.5981
33 | O=C(Cn1ccc2ccnc(-c3cccs3)c21)N1CCOCC1 [CBK284729] | 160.948
34 | Cc1ccc([N+](=O)[O-])cc1NC(=O)c1cc(S(=O)(=O)N(C)C)c(Cl)cc1Cl [CBK266764] | 115.644
35 | Cn1cc(Cl)c(C2CCCCCN2S(=O)(=O)c2ccc3[nH]c(=O)[nH]c(=O)c3c2)n1 (centres unmarked) [CBK286408] | 127.829
36 | Nc1ncnc(NCCC(c2ccccc2)c2ccccc2)c1[N+](=O)[O-] [CBK267294] | 118.756
37 | Nc1ncc(-c2cccc3cccnc23)nc1N1CCOCC1 [CBK063383] | 101.852
38 | Cn1cc(-c2ncc(OCCn3cccc3)nc2N)cn1 [CBK145170] | 122.668
39 | c1ccc(-c2cn3ccnc3c(NCC3CCOCC3)n2)cc1 [CBK037356] | 186.206
40 | COc1ccc(OC)c(NC(=O)c2c(NCc3ccncc3)sc3c2CCC3)c1 [CBK266007] | 139.837
41 | O=c1[nH]cc(-c2ccccc2)cc1CNCC1Cc2ccccc2O1 (centres unmarked) [CBK284772] | 137.001
42 | O=C(O)CSc1nc2ccc([N+](=O)[O-])cc2s1 [CBK262232] | 120.825
43 | COc1cc(CCc2cc(O)n3nc(C)c(-c4ccc(Cl)cc4)c3n2)on1 [CBK285681] | 85.8847
44 | COc1cccc(CNc2ccc3c4c(cccc24)CC3)c1OC [CBK269688] | 126.252
45 | CC1(C)OC(=O)CC1C(=O)N1CCCC(COc2ccccc2F)C1 (centres unmarked) [CBK282098] | 135.071
46 | O=C(CSc1nnc(-c2ccncc2)o1)c1ccccc1 [CBK070562] | 58.7553
47 | COc1cccc(NC(=O)c2ccc(-c3ccsc3)nc2NCC2CC2)c1 [CBK106227] | 94.2046
48 | O=S(=O)(NC(c1ccccc1)c1ccccc1)c1ccc(Cl)cc1 [CBK261759] | 96.809
49 | CCOc1ccc(NC(=O)c2c(O)c3ccccc3n(CC)c2=O)cc1 [CBK287771] | 125.345
50 | CC(C)Cc1[nH]nc(O)c1-c1ccccc1 [CBK075134] | 106.626
51 | COc1ccc(Cl)cc1NC(=O)NCCN1CCCCC1 [CBK268169] | 114.229
52 | CC(C)[C@H](CO)Nc1nc(-c2ccc(F)c(Cl)c2)cnc1N [CBK063949] | 146.83
53 | Cc1csc2c(C3CCCN(C(=O)c4ccnn4C)C3)nc(C)n12 (centres unmarked) [CBK285215] | 129.12
54 | Cc1c(-c2ccnc(N3CCOCC3)n2)cnc2nc(-c3ccncc3)nn12 [CBK288551] | 139.193

Row | SMILES | % of control remaining [%]
55 | CN1CC[C@]2(c3ccc4c(c3)nnn4C)CC[C@@H](NC(=O)Nc3cccc(C(F)(F)F)c3F)C[C@H]12 [CBK067410] | 124.323
56 | Cc1cc(C)cc(CNC(=O)N(CCCO)Cc2ccncc2)c1 [CBK304335] | 87.7626
57 | CCOCCCNC(=O)c1cccc(S(=O)(=O)N2CCCC2)c1 [CBK305934] | 101.397
58 | Nc1nc(Cn2nc(-c3ccc(F)cc3)oc2=O)nc(Nc2ccc(F)cc2)n1 [CBK296742] | 133.265
59 | CCc1ccc(-c2csc(NS(=O)(=O)c3cccc(C(=O)O)c3)n2)cc1 [CBK296726] | 133.639
60 | CC(C(=O)Nc1c(F)cc(F)cc1OC1CCNCC1)c1ccccc1 (centres unmarked) [CBK045896T] | 110.028
61 | CCOC(=O)C1CCN(C(=O)c2cnn3c(C)c(Cc4cccc(Cl)c4)c(C)nc23)CC1 [CBK160305] | 114.736
62 | COc1ccc(-c2ccccc2NC(=O)c2cc(-n3cccn3)ccc2Cl)cc1 [CBK285634] | 122.758
63 | COCOc1ccc(-c2ncc(OC)nc2NC(=O)c2cc(C)oc2C)cc1 [CBK145249] | 127.916
64 | Cn1cc(N2CCCC(NC(=O)Nc3cccc(C#N)c3)C2)cn1 (centres unmarked) [CBK305179] | 119.482
65 | CN(C)CCN(Cc1ccccc1)c1ccccc1 [CBK012223C] | 118.583
66 | O=C(NCc1ccccn1)/C(=N/O)c1ccccc1 [CBK288472] | 109.75
67 | C/C(=N\c1ccccc1C(F)(F)F)c1ccncc1 [CBK021262] | 100
68 | Cc1cnc(C(=O)NC2(c3ccc(Cl)cc3)CCC2)cn1 [CBK282775] | 98.8508
69 | Cc1ccc2c(O)c(C(=O)NCc3cccs3)cnc2c1 [CBK159997] | 90.1797
70 | Oc1c(Br)cc(Cl)cc1/C=N/Nc1nnc2c(n1)[nH]c1ccccc12 [CBK262041] | 105.333
71 | Nc1ncc(-c2ccoc2)nc1N1CCN(CCO)CC1 [CBK063428] | 234.773
72 | Cc1cc(C)c(NC(=O)CSc2nc(C)c(Cc3ccccc3)c(O)n2)c([N+](=O)[O-])c1 [CBK268715] | 161.493
73 | Cc1cccc(N2CCOC3(CCCC3)C2)n1 [CBK304446] | 109.185
74 | COc1ccc(C(=O)Nc2nc(-c3ccc(OC)cc3)cs2)cc1 [CBK287325] | 162.078
75 | O=C(NCc1ccc(Cl)c(Cl)c1)Nc1cccc(C(=O)O)c1 [CBK155461G] | 80.0935
76 | CCN1CCN(C(=O)c2cnccn2)CC1 [CBK200373] | 148.386
77 | c1cc(-c2cnn(-c3ccc4c(c3)CCO4)n2)cs1 [CBK112861] | 100.702
78 | O=C(O)CCCC(=O)N1N=C(c2ccccc2)CC1c1ccc2nccnc2c1 (centres unmarked) [CBK286752] | 123.42
79 | CCCc1[nH]nc(O)c1Cc1ccc(C(C)(C)C)cc1 [CBK075028] | 118.805
80 | Oc1ccc2[nH]c3c(c2c1)CCNC31CCN(CCOc2ccccc2)C1 (centres unmarked) [CBK081496] | 97.6079

Of the compounds above, these have a Cl atom.
Row | SMILES | % of control remaining [%]
5 | CC(=O)NCC1CC(c2ccc(OC(C)=O)c(Cl)n2)=NO1 (centres unmarked) [CBK010396] | 100
9 | Cc1ccc(C(=O)Nc2ccc3[nH]ccc3c2)cc1Cl [CBK159677] | 114.608
27 | Cc1cc(Cl)ccc1OCCCC(=O)Nc1sc2c(c1C(N)=O)CCCCCC2 [CBK265390] | 104.602
34 | Cc1ccc([N+](=O)[O-])cc1NC(=O)c1cc(S(=O)(=O)N(C)C)c(Cl)cc1Cl [CBK266764] | 115.644
35 | Cn1cc(Cl)c(C2CCCCCN2S(=O)(=O)c2ccc3[nH]c(=O)[nH]c(=O)c3c2)n1 (centres unmarked) [CBK286408] | 127.829
43 | COc1cc(CCc2cc(O)n3nc(C)c(-c4ccc(Cl)cc4)c3n2)on1 [CBK285681] | 85.8847
48 | O=S(=O)(NC(c1ccccc1)c1ccccc1)c1ccc(Cl)cc1 [CBK261759] | 96.809
51 | COc1ccc(Cl)cc1NC(=O)NCCN1CCCCC1 [CBK268169] | 114.229
52 | CC(C)[C@H](CO)Nc1nc(-c2ccc(F)c(Cl)c2)cnc1N [CBK063949] | 146.83
61 | CCOC(=O)C1CCN(C(=O)c2cnn3c(C)c(Cc4cccc(Cl)c4)c(C)nc23)CC1 [CBK160305] | 114.736
62 | COc1ccc(-c2ccccc2NC(=O)c2cc(-n3cccn3)ccc2Cl)cc1 [CBK285634] | 122.758
68 | Cc1cnc(C(=O)NC2(c3ccc(Cl)cc3)CCC2)cn1 [CBK282775] | 98.8508
70 | Oc1c(Br)cc(Cl)cc1/C=N/Nc1nnc2c(n1)[nH]c1ccccc12 [CBK262041] | 105.333
75 | O=C(NCc1ccc(Cl)c(Cl)c1)Nc1cccc(C(=O)O)c1 [CBK155461G] | 80.0935
